The list shows a part of the results. Small differences around the control level are noise.

Amino acid sequences for entries named in this document (tags omitted). A change or cut given only in a name is not applied to a line headed by its entry.
UniProt Q9NX07: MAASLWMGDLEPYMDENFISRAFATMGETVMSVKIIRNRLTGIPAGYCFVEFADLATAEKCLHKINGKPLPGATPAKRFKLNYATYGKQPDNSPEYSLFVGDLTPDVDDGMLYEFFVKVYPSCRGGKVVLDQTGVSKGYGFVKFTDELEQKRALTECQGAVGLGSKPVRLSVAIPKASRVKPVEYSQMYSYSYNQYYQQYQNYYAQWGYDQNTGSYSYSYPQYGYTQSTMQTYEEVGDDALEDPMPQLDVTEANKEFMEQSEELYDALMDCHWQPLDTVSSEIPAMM
UniProt Q9UG63: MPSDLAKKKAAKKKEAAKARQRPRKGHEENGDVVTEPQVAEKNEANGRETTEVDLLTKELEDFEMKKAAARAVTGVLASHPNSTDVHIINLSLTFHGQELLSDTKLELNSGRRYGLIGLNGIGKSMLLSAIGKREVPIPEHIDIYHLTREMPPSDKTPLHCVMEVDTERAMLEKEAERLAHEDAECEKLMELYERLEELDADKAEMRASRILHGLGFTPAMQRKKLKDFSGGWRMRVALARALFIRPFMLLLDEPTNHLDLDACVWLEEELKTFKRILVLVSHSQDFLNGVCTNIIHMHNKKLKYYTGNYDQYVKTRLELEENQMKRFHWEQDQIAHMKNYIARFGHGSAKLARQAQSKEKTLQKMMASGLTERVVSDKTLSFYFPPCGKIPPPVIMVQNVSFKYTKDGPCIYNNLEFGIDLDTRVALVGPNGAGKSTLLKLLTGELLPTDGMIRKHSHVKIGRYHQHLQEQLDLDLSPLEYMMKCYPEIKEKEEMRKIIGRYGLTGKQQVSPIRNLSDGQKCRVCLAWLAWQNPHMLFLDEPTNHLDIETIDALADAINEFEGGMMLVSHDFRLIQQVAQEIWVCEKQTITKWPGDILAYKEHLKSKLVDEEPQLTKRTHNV
UniProt Q9NYJ1, whole entry: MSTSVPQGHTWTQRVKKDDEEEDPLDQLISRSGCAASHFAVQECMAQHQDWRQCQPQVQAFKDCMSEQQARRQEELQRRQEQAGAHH
UniProt Q9UGI8: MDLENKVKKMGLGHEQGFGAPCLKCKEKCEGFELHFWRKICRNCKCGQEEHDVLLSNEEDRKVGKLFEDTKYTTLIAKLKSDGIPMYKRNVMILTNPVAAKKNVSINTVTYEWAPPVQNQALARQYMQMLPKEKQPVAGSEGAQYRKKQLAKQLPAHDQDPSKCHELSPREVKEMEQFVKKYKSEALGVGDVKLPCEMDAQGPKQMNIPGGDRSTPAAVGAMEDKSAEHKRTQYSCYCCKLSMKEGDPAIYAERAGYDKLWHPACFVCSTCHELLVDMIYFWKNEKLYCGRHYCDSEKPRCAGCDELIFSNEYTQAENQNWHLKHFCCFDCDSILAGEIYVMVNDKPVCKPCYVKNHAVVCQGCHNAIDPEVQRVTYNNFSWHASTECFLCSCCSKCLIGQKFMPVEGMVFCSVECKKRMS
UniProt Q9UBD5: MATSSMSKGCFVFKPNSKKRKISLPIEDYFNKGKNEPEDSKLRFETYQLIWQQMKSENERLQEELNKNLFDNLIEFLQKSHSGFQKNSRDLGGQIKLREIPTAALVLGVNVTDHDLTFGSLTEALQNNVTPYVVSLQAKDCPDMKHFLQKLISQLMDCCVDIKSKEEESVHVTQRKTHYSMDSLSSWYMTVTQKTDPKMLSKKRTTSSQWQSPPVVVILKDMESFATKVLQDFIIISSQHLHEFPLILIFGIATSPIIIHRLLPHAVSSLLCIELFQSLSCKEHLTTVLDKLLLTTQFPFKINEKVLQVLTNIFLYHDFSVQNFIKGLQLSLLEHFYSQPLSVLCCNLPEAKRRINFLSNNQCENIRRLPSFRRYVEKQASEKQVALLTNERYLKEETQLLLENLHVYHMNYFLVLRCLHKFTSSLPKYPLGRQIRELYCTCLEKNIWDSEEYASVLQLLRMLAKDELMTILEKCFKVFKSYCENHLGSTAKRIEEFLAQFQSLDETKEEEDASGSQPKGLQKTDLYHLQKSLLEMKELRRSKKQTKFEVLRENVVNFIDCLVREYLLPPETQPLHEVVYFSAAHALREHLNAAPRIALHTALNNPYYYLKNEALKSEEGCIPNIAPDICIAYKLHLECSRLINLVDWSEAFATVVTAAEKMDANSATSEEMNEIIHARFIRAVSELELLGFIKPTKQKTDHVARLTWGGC
UniProt Q9NX55: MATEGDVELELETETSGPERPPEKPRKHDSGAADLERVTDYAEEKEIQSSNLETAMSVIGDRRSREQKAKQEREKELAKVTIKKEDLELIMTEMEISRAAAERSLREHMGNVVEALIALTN
UniProt Q9UBK9, whole entry: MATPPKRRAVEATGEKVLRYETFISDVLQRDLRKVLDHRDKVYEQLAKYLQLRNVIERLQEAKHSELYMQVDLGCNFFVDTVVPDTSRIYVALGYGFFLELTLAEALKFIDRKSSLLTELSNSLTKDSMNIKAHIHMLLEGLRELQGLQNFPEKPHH
UniProt Q9UGP8: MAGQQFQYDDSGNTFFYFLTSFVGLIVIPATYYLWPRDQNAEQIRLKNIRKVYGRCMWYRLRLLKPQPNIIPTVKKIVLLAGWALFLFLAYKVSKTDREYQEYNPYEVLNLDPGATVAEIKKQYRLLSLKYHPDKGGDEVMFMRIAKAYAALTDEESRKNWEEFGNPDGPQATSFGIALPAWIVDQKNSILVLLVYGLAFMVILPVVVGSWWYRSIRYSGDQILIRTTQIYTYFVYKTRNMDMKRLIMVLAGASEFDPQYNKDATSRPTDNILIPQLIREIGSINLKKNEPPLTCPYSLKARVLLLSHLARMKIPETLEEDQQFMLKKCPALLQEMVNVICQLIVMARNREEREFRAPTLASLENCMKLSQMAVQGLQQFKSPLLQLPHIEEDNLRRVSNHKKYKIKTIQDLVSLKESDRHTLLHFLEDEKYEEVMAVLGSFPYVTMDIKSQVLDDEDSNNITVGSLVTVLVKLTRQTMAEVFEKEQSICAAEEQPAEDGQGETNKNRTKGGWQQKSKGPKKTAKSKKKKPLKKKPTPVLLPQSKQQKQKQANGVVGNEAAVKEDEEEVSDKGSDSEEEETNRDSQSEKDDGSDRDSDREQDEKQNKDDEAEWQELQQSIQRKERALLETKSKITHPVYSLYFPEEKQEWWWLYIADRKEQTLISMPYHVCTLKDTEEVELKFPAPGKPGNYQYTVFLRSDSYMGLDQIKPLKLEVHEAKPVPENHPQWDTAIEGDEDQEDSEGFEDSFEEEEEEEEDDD
UniProt Q9P2P5: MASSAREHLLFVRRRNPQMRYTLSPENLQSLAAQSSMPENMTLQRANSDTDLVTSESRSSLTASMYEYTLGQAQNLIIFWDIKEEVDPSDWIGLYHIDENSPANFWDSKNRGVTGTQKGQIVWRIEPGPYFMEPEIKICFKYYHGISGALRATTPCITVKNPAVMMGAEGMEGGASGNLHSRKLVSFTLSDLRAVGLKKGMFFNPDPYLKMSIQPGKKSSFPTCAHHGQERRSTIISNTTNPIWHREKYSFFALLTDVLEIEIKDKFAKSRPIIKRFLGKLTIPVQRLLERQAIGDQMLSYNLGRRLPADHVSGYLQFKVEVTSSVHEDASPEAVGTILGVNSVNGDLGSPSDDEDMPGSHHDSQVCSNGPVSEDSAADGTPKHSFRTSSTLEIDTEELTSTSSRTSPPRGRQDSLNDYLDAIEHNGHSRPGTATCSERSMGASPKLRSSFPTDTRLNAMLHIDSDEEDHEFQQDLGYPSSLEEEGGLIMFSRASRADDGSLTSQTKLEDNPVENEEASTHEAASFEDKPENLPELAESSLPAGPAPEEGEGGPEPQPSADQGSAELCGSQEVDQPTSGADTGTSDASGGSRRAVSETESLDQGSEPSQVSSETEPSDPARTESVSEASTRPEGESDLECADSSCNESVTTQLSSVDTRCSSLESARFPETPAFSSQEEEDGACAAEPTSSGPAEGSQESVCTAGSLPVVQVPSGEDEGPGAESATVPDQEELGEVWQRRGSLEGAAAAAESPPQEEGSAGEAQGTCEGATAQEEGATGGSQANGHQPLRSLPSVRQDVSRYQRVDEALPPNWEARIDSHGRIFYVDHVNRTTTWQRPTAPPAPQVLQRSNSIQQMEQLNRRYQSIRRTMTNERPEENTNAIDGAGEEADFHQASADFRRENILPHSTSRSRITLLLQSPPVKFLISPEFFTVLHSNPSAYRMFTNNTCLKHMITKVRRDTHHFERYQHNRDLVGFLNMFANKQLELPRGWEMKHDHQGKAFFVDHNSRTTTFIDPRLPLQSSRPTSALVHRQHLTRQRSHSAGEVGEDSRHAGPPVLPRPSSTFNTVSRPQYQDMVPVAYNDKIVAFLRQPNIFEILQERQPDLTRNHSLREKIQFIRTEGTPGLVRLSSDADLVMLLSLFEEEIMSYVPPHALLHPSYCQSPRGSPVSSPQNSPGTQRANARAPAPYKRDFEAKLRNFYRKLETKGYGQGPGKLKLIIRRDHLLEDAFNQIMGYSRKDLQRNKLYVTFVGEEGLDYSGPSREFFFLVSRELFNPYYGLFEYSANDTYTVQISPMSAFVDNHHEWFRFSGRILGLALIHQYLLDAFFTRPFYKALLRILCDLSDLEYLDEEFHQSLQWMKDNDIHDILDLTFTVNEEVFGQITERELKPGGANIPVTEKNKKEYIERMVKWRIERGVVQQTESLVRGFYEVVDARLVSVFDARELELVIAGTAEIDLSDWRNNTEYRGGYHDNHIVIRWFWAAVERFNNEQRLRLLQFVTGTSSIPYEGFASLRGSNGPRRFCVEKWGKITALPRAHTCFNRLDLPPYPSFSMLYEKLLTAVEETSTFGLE
UniProt Q9UBU8, whole entry: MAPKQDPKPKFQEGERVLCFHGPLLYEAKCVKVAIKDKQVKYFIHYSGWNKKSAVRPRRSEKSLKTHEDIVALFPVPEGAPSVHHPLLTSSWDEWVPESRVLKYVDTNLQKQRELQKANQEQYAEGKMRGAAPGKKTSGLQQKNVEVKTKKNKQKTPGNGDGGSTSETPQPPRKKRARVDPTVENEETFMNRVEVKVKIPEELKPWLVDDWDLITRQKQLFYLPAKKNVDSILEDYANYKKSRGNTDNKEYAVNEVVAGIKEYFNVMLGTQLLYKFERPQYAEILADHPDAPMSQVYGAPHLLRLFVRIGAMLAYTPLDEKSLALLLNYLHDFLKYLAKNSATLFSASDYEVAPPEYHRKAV
UniProt Q9UBB5, whole entry: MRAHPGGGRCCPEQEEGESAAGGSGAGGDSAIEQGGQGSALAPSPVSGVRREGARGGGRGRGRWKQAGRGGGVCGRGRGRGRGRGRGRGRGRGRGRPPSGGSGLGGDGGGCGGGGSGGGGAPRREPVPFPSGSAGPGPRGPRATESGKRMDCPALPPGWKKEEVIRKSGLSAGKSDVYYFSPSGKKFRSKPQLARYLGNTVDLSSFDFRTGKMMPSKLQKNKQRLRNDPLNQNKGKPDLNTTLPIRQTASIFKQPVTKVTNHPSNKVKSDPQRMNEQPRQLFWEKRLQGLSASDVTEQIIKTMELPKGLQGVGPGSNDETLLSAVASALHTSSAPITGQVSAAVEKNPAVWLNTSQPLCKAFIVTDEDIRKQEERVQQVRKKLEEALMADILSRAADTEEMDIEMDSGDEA
UniProt Q9NXR1: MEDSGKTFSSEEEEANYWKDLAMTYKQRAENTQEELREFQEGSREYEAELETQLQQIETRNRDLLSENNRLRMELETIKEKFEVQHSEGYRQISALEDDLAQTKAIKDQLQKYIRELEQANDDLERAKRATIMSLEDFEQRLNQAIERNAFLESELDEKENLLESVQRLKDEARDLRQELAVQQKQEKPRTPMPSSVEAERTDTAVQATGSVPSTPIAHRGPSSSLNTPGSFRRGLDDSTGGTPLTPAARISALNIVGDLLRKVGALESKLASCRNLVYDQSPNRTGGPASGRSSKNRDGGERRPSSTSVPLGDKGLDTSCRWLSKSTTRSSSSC
UniProt Q9UEY8: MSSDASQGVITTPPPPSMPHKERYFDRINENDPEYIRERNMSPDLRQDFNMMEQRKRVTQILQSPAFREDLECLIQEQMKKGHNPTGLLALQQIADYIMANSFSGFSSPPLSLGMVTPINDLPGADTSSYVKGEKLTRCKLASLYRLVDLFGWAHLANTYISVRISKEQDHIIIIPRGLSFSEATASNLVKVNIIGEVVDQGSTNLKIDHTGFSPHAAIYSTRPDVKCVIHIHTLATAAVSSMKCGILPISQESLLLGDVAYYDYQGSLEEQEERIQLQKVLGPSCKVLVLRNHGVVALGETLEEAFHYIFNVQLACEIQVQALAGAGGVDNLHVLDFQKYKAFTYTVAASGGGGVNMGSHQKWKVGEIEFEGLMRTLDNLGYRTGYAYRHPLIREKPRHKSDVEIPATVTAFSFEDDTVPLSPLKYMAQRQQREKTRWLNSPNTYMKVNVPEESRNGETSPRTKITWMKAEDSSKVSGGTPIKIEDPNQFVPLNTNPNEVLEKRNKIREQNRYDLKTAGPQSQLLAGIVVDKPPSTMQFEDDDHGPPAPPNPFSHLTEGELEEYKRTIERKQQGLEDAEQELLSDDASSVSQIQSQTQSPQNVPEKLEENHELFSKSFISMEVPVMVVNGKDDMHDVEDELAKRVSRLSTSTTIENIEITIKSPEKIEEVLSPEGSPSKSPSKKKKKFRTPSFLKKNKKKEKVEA

Compound in this experiment: Cc1nc(Nc2ncc(C(=O)Nc3c(C)cccc3Cl)s2)cc(N2CCN(CCO)CC2)n1 [dasatinib]
The experiment can be described thus: log2 fold change of tryptic peptide abundance, ligand vs vehicle (limited proteolysis) (log2 ratio); higher = more trypsin-susceptible (destabilized). The conditions noted are these: ligand concentration: 5 uM; sample: K562 cleared lysate.
In the case of “TRNAU1AP (peptide sequence: VVLDQTGVSK, peptide start residue: 128) (UniProt Q9NX07)”, the log2 fold change is -0.146.
Then “UniProt Q9P2J8 (peptide sequence: SSSLIIHQR, peptide start residue: 317)”, with -0.848; and “CDKN2AIP (peptide sequence: VTDAPTYTTR, peptide start residue: 109) (UniProt Q9NXV6)”, with -0.293.
Under “EIF2AK4 (peptide sequence: LHHENIVR, peptide start residue: 643) (UniProt Q9P2K8)” stands -0.201; under “LRWD1 (peptide sequence: VSFLLPTLR, peptide start residue: 112) (UniProt Q9UFC0)”, -0.118.
Take “TMOD2 (peptide sequence: NIDEDELLGKLSEEELK, peptide start residue: 14) (UniProt Q9NZR1)”: the log2 fold change came out at 0.314.
Under “ABCF2 (peptide sequence: ILHGLGFTPAMQR, peptide start residue: 211) (UniProt Q9UG63)” stands -0.298.
On to “UniProt Q9NYJ1 (peptide sequence: VKKDDEEEDPLDQLISR, peptide start residue: 15)”, for which the log2 fold change is -0.0571.
As for “EURL (peptide sequence: KINWIVQYAQNK, peptide start residue: 93) (UniProt Q9NYK6)”, the log2 fold change was 0.752.
“TES (peptide sequence: MGLGHEQGFGAPCLKCK, peptide start residue: 10) (UniProt Q9UGI8)”: the log2 fold change amounted to 0.114.
Turning to “UniProt Q9UBD5 (peptide sequence: IALHTALNNPYYYLK, peptide start residue: 597)”, the log2 fold change is 0.0921.
Take “TJP2 (peptide sequence: SIDQDYER, peptide start residue: 244) (UniProt Q9UDY2)”: the log2 fold change is -0.139.
As for “RTEL1 (peptide sequence: QDYGAVFLCDHR, peptide start residue: 703) (UniProt Q9NZ71)”, the log2 fold change was -0.89.
Then “UniProt Q9NX55 (peptide sequence: KEDLELIMTEMEISR, peptide start residue: 84)”, with 0.0727.
Under “CTTNBP2NL (peptide sequence: NLANTANPR, peptide start residue: 535) (UniProt Q9P2B4)” stands 0.217.
“LYAR (peptide sequence: SEEELLVIFNKK, peptide start residue: 350) (UniProt Q9NX58)”: the log2 fold change is -2.01.
Under “UXT (peptide sequence: AHIHMLLEGLR, peptide start residue: 133) (UniProt Q9UBK9)” stands -0.308.
For the target “GMIP (peptide sequence: VTLSLFGLR, peptide start residue: 310) (UniProt Q9P107)”, the log2 fold change was -0.413.
Under “SEC63 (peptide sequence: KKPTPVLLPQSK, peptide start residue: 534) (UniProt Q9UGP8)” stands 0.00569; under “HECW2 (peptide sequence: ENILPHSTSR, peptide start residue: 901) (UniProt Q9P2P5)”, -0.425; under “MORF4L1 (peptide sequence: YVDTNLQK, peptide start residue: 104) (UniProt Q9UBU8)”, 0.113.
As for “OGFR (peptide sequence: SSQEIQER, peptide start residue: 159) (UniProt Q9NZT2)”, the log2 fold change was determined as 0.313.
Under “MBD2 (peptide sequence: AFIVTDEDIRKQEER, peptide start residue: 361) (UniProt Q9UBB5)” stands -0.445; under “FAM120C (peptide sequence: AHQLVLPPCDVVIK, peptide start residue: 271) (UniProt Q9NX05)”, -0.0441.
Then “NDE1 (peptide sequence: DLRQELAVQQK, peptide start residue: 175) (UniProt Q9NXR1)”, with 0.731; and “AFF4 (peptide sequence: TEDKNSAGHKPSSNR, peptide start residue: 784) (UniProt Q9UHB7)”, with -0.4.
In the case of “UniProt Q9NYU2 (peptide sequence: QLLYDAIK, peptide start residue: 776)”, the log2 fold change was -0.565.
As to “UniProt Q9UDV7 (peptide sequence: KVDAQASQLLNLEGR, peptide start residue: 111)”, the log2 fold change was -0.114.
Under “ADD3 (peptide sequence: FRTPSFLK, peptide start residue: 709) (UniProt Q9UEY8)” stands -0.201.
